The record followed here is PubChem BioAssay AID256 (DTP/NCI, 2004).

The list is a part of this screen's results and no random one: it gathers tests that were run many times, whatever their T/C, doses with no T/C, and many T/C values between a quarter and a half above the control. Other doses and runs of a compound stand elsewhere. T/C: endpoint of the treated group in % of that of the vehicle group. Some doses have a count of surviving animals in place of a T/C: the source holds a T/C of zero for them, seemingly a mark for toxic or unscored doses. Some survivor counts are full or nearly so, which does not show that the dose was tolerated: the source hardly ever lists a survival T/C far under the control, and the zero likely stands for such cases as well. Survivors were counted at the toxicity check, usually on the fifth day, unless a day is given; later deaths do not show. Schedule codes are those of the source, read here as Q, the interval in days (D) or hours (H), X, the number of doses. Some entries were tested several times; the results are listed from low to high. Where survival is the endpoint, this PubChem deposit counts one and a half times the control or more as active, and values a quarter to a half above the control carry no call in these data; other NCI protocols may use other cut-offs. Some T/C values carry the count of animals alive at the toxicity check (mostly the fifth day); without a count, all were alive then. Marks such as (2×) count equal records among those shown.

The subject of the assay is CD2F1 mice, L1210 leukemia ip, survival T/C. In words: NCI In Vivo Anticancer Drug Screen. Data for tumor model L1210 Leukemia (intraperitoneal) in CD2F1 (CDF1) mice. The note with it: higher T/C = longer survival. The essentials: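 Activity against a transplanted murine tumor was judged by comparing the compound group with a vehicle group. The outcome in the treated animals was divided by that in the controls.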

Setting [1] is: T/C endpoint: mean survival time, dose: 16.0 mg/kg/injection, schedule: Q04DX003 (ip), vehicle: saline.

For `OC(C1CO1)C(O)C1CO1` (stereo not given), the T/C is, setting by setting: (T/C endpoint: mean survival time, dose: 0.5 mg/kg/injection, schedule: Q03HX024 (ip), vehicle: saline) 133 % of control [9 of 10 alive]; (T/C endpoint: mean survival time, dose: 1.0 mg/kg/injection, schedule: Q01DX009 (ip), vehicle: saline, evaluated on day 30) 130 and 145 % of control; (T/C endpoint: mean survival time, dose: 1.0 mg/kg/injection, schedule: Q01DX009 (ip), vehicle: saline, evaluated on day 60) 110 and 131 % of control; (T/C endpoint: mean survival time, dose: 1.0 mg/kg/injection, schedule: Q03HX008 (ip), vehicle: saline) 132 % of control [8 of 10 alive]; (T/C endpoint: mean survival time, dose: 1.0 mg/kg/injection, schedule: Q03HX016 (ip), vehicle: saline) 134 % of control; (T/C endpoint: mean survival time, dose: 1.4 mg/kg/injection, schedule: Q01DX009 (ip), vehicle: saline) 127 % of control. Besides, the T/C runs as follows: (T/C endpoint: mean survival time, dose: 2.0 mg/kg/injection, schedule: Q01DX009 (ip), vehicle: saline, evaluated on day 30) 178 and 182 % of control; (T/C endpoint: mean survival time, dose: 2.0 mg/kg/injection, schedule: Q01DX009 (ip), vehicle: saline, evaluated on day 60) 140 and 160 % of control; (T/C endpoint: mean survival time, dose: 2.0 mg/kg/injection, schedule: Q01DX009 (sc), vehicle: saline) 127 % of control; (T/C endpoint: mean survival time, dose: 4.0 mg/kg/injection, schedule: Q01DX001 (ip), vehicle: saline) 127 % of control; (T/C endpoint: mean survival time, dose: 4.0 mg/kg/injection, schedule: Q01DX009 (ip), vehicle: saline) 146 % of control; (T/C endpoint: mean survival time, dose: 4.0 mg/kg/injection, schedule: Q04DX003 (ip), vehicle: saline, evaluated on day 30) 143 % of control. Moreover, the T/C (T/C endpoint: mean survival time, dose: 4.0 mg/kg/injection, schedule: Q04DX003 (ip), vehicle: saline, evaluated on day 60) is 147 % of control; the T/C (T/C endpoint: mean survival time, dose: 4.0 mg/kg/injection, schedule: Q08DX002 (ip), vehicle: saline) was 142 % of control; the T/C (T/C endpoint: mean survival time, dose: 5.0 mg/kg/injection, schedule: Q01DX001 (ip), vehicle: saline) was 134 % of control; the T/C (T/C endpoint: mean survival time, dose: 8.0 mg/kg/injection, schedule: Q01DX001 (ip), vehicle: saline) is 136 % of control; the T/C (T/C endpoint: mean survival time, dose: 8.0 mg/kg/injection, schedule: Q01DX001 (sc), vehicle: saline) was 125 % of control; the T/C (T/C endpoint: mean survival time, dose: 10.0 mg/kg/injection, schedule: Q01DX001 (ip), vehicle: saline, evaluated on day 30) is 176 and 191 % of control. Besides, the T/C reads like this: (T/C endpoint: mean survival time, dose: 10.0 mg/kg/injection, schedule: Q01DX001 (ip), vehicle: saline, evaluated on day 60) 166, 176 (2×), 179 % of control; (T/C endpoint: mean survival time, dose: 12.5 mg/kg/injection, schedule: Q01DX001 (ip), vehicle: saline) 186, 187, 252, 418 % of control; (T/C endpoint: mean survival time, dose: 15.0 mg/kg/injection, schedule: Q01DX001 (ip), vehicle: saline, evaluated on day 30) 217 % of control; (T/C endpoint: mean survival time, dose: 15.0 mg/kg/injection, schedule: Q01DX001 (ip), vehicle: saline, evaluated on day 60) 102 [7 of 10 alive], 286, 425, 428 % of control; (T/C endpoint: mean survival time, dose: 16.0 mg/kg/injection, schedule: Q01DX001 (ip), vehicle: saline) 127 % of control; under setting [1], 132 % of control. In addition, the T/C reads like this: (T/C endpoint: median survival time, dose: 8.0 mg/kg/injection, schedule: Q01DX001 (ip), vehicle: saline) 134 and 148 % of control; (T/C endpoint: median survival time, dose: 12.0 mg/kg/injection, schedule: Q03DX003 (ip), vehicle: saline) 139 % of control. Further, the survivor count by setting is: (T/C endpoint: mean survival time, dose: 8.0 mg/kg/injection, schedule: Q01DX009 (ip), vehicle: saline) 6 of 6; (T/C endpoint: mean survival time, dose: 16.0 mg/kg/injection, schedule: Q01DX009 (ip), vehicle: saline) 9 of 10 and 6 of 6; under setting [1], 10 of 10; (T/C endpoint: mean survival time, dose: 40.0 mg/kg/injection, schedule: Q01DX001 (ip), vehicle: saline) 5 of 6; (T/C endpoint: mean survival time, dose: 80.0 mg/kg/injection, schedule: Q01DX001 (ip), vehicle: saline) 6 of 6.

As for `CC1C[C@@H](O)C(NC(=O)N(CCCl)N=O)[C@@H](O)C1` (stereo not given in full), the survivor count (T/C endpoint: mean survival time, dose: 45.0 mg/kg/injection, schedule: Q01DX001 (ip), vehicle: saline) was 10 of 10 and the survivor count (T/C endpoint: mean survival time, dose: 67.0 mg/kg/injection, schedule: Q01DX001 (ip), vehicle: saline) is reported as 8 of 10.

On to `NC(=O)c1[nH]nc(C2OC(CO)C(O)C2O)c1O` (stereo not given), for which the T/C runs as follows: (T/C endpoint: median survival time, dose: 0.67 mg/kg/injection, schedule: Q01DX009 (ip), vehicle: saline) 126 % of control; (T/C endpoint: median survival time, dose: 1.0 mg/kg/injection, schedule: Q01DX009 (ip), vehicle: saline) 131 % of control; (T/C endpoint: median survival time, dose: 2.0 mg/kg/injection, schedule: Q01DX009 (ip), vehicle: saline) 131 % of control; (T/C endpoint: median survival time, dose: 2.0 mg/kg/injection, schedule: Q04DX003 (ip), vehicle: saline, evaluated on day 5) 103, 107, 110 % of control; (T/C endpoint: median survival time, dose: 2.0 mg/kg/injection, schedule: Q04DX003 (ip), vehicle: saline, evaluated on day 7) 113 % of control; (T/C endpoint: median survival time, dose: 4.0 mg/kg/injection, schedule: Q04DX003 (ip), vehicle: saline, evaluated on day 5) 106, 111, 114 % of control. Further, the T/C (T/C endpoint: median survival time, dose: 4.0 mg/kg/injection, schedule: Q04DX003 (ip), vehicle: saline, evaluated on day 7) is 117 % of control; the T/C (T/C endpoint: median survival time, dose: 8.0 mg/kg/injection, schedule: Q04DX003 (ip), vehicle: saline) is 130 % of control; the T/C (T/C endpoint: median survival time, dose: 16.0 mg/kg/injection, schedule: Q04DX003 (ip), vehicle: saline) is 125 and 128 % of control; the T/C (T/C endpoint: median survival time, dose: 32.0 mg/kg/injection, schedule: Q04DX003 (ip), vehicle: saline) was 128 % of control.

For `COC(=O)Nc1cn2cc(C(=O)c3cccs3)ccc2n1`, the survivor count (T/C endpoint: median survival time, dose: 100.0 mg/kg/injection, schedule: Q01DX009 (ip), vehicle: Klucel (hydroxypropylcellulose) (HPC)) is reported as 5 of 6 and the survivor count (T/C endpoint: median survival time, dose: 200.0 mg/kg/injection, schedule: Q01DX009 (ip), vehicle: Klucel (hydroxypropylcellulose) (HPC)) is listed as 6 of 6.

For the compound `O=S(=O)(O)O.[Pt].c1ccc([PH+](c2ccccc2)c2ccccc2)cc1.c1ccc([PH+](c2ccccc2)c2ccccc2)cc1.c1ccc([PH+](c2ccccc2)c2ccccc2)cc1`, the survivor count reads like this: (T/C endpoint: mean survival time, dose: 50.0 mg/kg/injection, schedule: Q04DX003 (ip), vehicle: distilled water + Tween-80) 0 of 6; (T/C endpoint: mean survival time, dose: 100.0 mg/kg/injection, schedule: Q04DX003 (ip), vehicle: distilled water + Tween-80) 0 of 6; (T/C endpoint: mean survival time, dose: 200.0 mg/kg/injection, schedule: Q04DX003 (ip), vehicle: distilled water + Tween-80) 0 of 6.

For the compound `O=C1NCCS1`, where the note is “T/C endpoint: mean survival time, dose: 300.0 mg/kg/injection, schedule: Q01DX001 (ip), vehicle: saline”, the survivor count was 3 of 6.

Turning to `O=C([O][Sb]([O]C(=O)C(Cl)Cl)([c]1ccccc1)([c]1ccccc1)[c]1ccccc1)C(Cl)Cl`, under “T/C endpoint: mean survival time, dose: 400.0 mg/kg/injection, schedule: Q04DX003 (ip), vehicle: saline with Tween-80”, the survivor count is listed as 3 of 6.

For `O=S(=O)(/C=C/S(=O)(=O)c1ccccc1)c1ccccc1`, the survivor count (T/C endpoint: mean survival time, dose: 250.0 mg/kg/injection, schedule: Q01DX009 (ip), vehicle: Klucel (hydroxypropylcellulose) (HPC)) was 3 of 6.

Turning to `Nc1nc(Cl)nc(Cl)n1`, the survivor count (T/C endpoint: mean survival time, dose: 100.0 mg/kg/injection, schedule: Q01DX001 (ip), vehicle: saline with Tween-80) is 5 of 6; the survivor count (T/C endpoint: mean survival time, dose: 200.0 mg/kg/injection, schedule: Q01DX001 (ip), vehicle: saline with Tween-80) was 0 of 6; the survivor count (T/C endpoint: mean survival time, dose: 400.0 mg/kg/injection, schedule: Q01DX001 (ip), vehicle: saline with Tween-80) is 0 of 6.

For `[CH3][Sn]([Br])([Br])[CH2]CCCBr`, the survivor count is, setting by setting: (T/C endpoint: mean survival time, dose: 12.5 mg/kg/injection, schedule: Q01DX009 (ip), vehicle: saline) 3 of 3; (T/C endpoint: mean survival time, dose: 25.0 mg/kg/injection, schedule: Q01DX009 (ip), vehicle: saline) 0 of 3.

For the compound `CCc1ccc(C(=O)N/N=C(\C)[C@]2(O)Cc3c(O)c4c(c(O)c3[C@@H](OC3CC(N)C(O)C(C)O3)C2)C(=O)c2c(OC)cccc2C4=O)cc1` (stereo not given in full), the T/C (T/C endpoint: mean survival time, dose: 2.0 mg/kg/injection, schedule: Q01DX009 (ip), vehicle: water) is 126 % of control and the T/C (T/C endpoint: mean survival time, dose: 4.0 mg/kg/injection, schedule: Q01DX009 (ip), vehicle: water) was 133 % of control. Further, the survivor count (T/C endpoint: mean survival time, dose: 16.0 mg/kg/injection, schedule: Q01DX009 (ip), vehicle: water) is listed as 6 of 6.

As to `CCCCC(CC)COP(OCC(CC)CCCC)OCC(CC)CCCC` (stereo not given), the survivor count (T/C endpoint: mean survival time, dose: 400.0 mg/kg/injection, schedule: Q01DX009 (ip), vehicle: saline with Tween-80) is recorded as 2 of 6.
